# According to PubChem BioAssay AID1259354 (Paczesny and Yang Labs, IUPUI and University of Michigan, 2018):
# Protein sequences, listed by entry. Tags and fused reporters are not part of them. Lines headed by an entry give the natural chain unless they say otherwise; changes in a name come on top.
# UniProt Q01638: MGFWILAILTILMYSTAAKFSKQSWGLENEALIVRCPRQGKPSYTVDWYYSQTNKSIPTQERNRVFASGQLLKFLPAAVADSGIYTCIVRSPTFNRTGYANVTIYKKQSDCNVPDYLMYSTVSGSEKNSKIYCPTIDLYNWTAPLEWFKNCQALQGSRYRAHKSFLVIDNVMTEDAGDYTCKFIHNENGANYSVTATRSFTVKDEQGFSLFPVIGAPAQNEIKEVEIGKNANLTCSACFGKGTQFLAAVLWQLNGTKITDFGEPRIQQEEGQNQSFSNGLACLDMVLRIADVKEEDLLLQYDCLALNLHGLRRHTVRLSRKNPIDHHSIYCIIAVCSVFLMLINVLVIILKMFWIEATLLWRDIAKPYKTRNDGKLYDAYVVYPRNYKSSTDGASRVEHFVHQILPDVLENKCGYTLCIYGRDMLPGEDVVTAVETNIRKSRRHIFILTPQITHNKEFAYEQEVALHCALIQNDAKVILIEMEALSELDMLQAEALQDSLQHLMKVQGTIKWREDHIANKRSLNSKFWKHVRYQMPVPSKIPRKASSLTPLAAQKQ
# Where “and” joins values, the source holds several entries; their conditions need not be identical. Identical values can stand only once. Screen size: about 78,000 compounds; about 1,800 (2.3%) were called active. Inconclusive means that the source gave no clear call. Such entries were picked first, then a sample of the others. Cut-off read from the data, not from the text of the source: active = inhibition above about 30%; inconclusive = mostly about 10% to 28%; inactive = weaker than that.
# Biological target: Interleukin-1 receptor-like 1 (Homo sapiens) (UniProt Q01638)
# Experiment: blocks human ST2 binding to IL-33, primary screen, biochemical, AlphaLISA (AID 1259354)
# Settings: AlphaLISA ST2-Fc/biotin-IL-33 interaction, 1 h; at 17 µM, hits give high values
row,Structure (SMILES),inhibition
1,Cc1nc2ccc(Cl)cc2s1,inactive
2,CCC(=O)Nc1cccc(C(=O)N(CC)CC2CCOCC2)c1,inactive
3,N#Cc1ccccc1NC(=O)CC1Sc2ccc(C(F)(F)F)cc2NC1=O (centres undefined),inactive
4,CCN(CC)c1nc2c(C)cccn2c(=O)c1C=C(C#N)C#N,inconclusive: 18%
5,COC(=O)C1C(=O)C2=C(CC1C)NC(C)=C(C(=O)OC1CCCCCC1)C2c1ccc(C)o1 (centres undefined),inactive
6,Cc1ccc(NC(=O)CSc2nnc3c4ccccc4n(C)c3n2)cc1,inconclusive: 21%
7,O=C(/C=C1\Sc2ccccc2NC1=O)NCCCN1CCN(c2ccccc2F)CC1,inconclusive: 16%
8,CCn1cc(C(=O)NC2CCCCCC2)c(=O)c2cc(S(=O)(=O)N3CCOCC3)ccc21,inactive
9,Cn1c(=O)[nH]c(=O)c2c1nc(N1CCCCCC1)n2CCSc1nnnn1-c1ccccc1,inactive
10,O=C(Nc1ccc(-c2ccc([N+](=O)[O-])cc2)cc1)c1ccco1,inconclusive: 17%
11,COc1ccc(F)c(-c2cnc(N)nc2)c1,inactive
12,Cc1ccc(/C=c2\sc3nnc(-c4ccccc4)n3c2=O)cc1,inactive
13,CCN(CC)C(=O)C1c2ccccc2C(=O)N2CCc3ccccc3C12 (centres undefined),inactive
14,CCOC(=O)CNC(=O)c1sc2nc(C)nc(N3CCN(c4ccccn4)CC3)c2c1C,inconclusive: 17%
15,CCCc1cc(C(=O)Nc2c(C)nn(Cc3ccccc3C)c2C)no1,inconclusive: 14%
16,COc1ccc(-c2nnc3sc(-c4ccc(OC)c(OC)c4)nn23)cc1,inconclusive: 13%
17,O=C1Nc2ccccc2C(O)(C(=O)NCc2ccco2)N1c1ccc(Cl)cc1 (centres undefined),inconclusive: 13%
18,Cn1cnc2c1c(=O)n(CCC[Si](C)(C)C)c(=O)n2C,inconclusive: 11%
19,CC(C)C[C@@H](NC(=O)[C@@]1(O)C[C@@H](O)[C@H](O)[C@@H](NC(=O)CS(=O)(=O)c2ccccc2)C1)C(N)=O,inactive
20,Cn1c2ccccc2c2nnc(SCC(=O)Nc3ccc(F)cc3)nc21,inconclusive: 26%

row,Structure (SMILES),inhibition
1,COCCNC(=O)c1nn(-c2ccc(OC)c(Cl)c2)c(=O)c2c1c1ccccc1n2C,inactive
2,COc1ccc(NC(=S)N[C@H]2C[C@H]3C(=O)NC[C@@H](CCC(=O)N4CCOCC4)N3C2)cc1,inconclusive: 11%
3,N#Cc1cc([N+](=O)[O-])c2sc(C(N)=O)[n+]([O-])c2c1,inconclusive: 13%
4,CCOc1ccc2c(=O)c(-c3ccccc3OC)coc2c1,inactive
5,CCN(Cc1ccc2c(c1)OC(F)(F)O2)C1CCS(=O)(=O)C1 (centres undefined),inactive
6,CC1(C)CC(=O)c2sc(NC(=O)CN3CCCCC3)nc2C1,inconclusive: 12%
7,COCC(=O)N1CCC2(CC1)CN(Cc1ccc(N(C)C)nc1)CCN2C,inconclusive: 11%
8,O=C(NC1CCN(Cc2ccccc2)CC1)c1cn(CC2CCCO2)nn1 (centres undefined),inactive
9,Cn1c(=O)c2c(SCC(=O)N3CCCc4ccccc43)nc(-c3cccs3)nc2n(C)c1=O,inconclusive: 26%
10,CCOC(=O)C1(Cc2ccccc2)CCN(Cc2ccc(C(=O)OC)cc2)CC1,inactive
11,O=C(c1ccco1)N1CCN(C(=O)c2cccn3c(=O)c4cc5ccccc5cc4nc23)CC1,inconclusive: 12%
12,CN1C[C@@H](NC(=O)c2ccc3c(c2)OCO3)C[C@H]1c1nc(-c2ccccc2)no1,inactive
13,CC(C)c1cc(CN(C)C(=O)CC2C(=O)NCCN2C(C)C)no1 (centres undefined),inconclusive: 18%
14,CCN1C(=O)/C(=c2\sc3nc4ccccc4n3c2=O)c2ccccc21,inconclusive: 23%
15,Cc1nnsc1C(=O)N(CC1CCN(Cc2ccccc2F)CC1)CC1CCCO1 (centres undefined),inconclusive: 14%
16,Cc1cnc(-n2cnnc2)c(-c2cc(O)cc(CCC3CCCCN3)c2)c1 (centres undefined),inconclusive: 10%
17,O=S(=O)(Nc1ccc(Cl)cc1)c1cccc2cccnc12,inactive
18,CC1CCN(CCNC(=O)C2CCN(S(=O)(=O)c3cccc4cccnc34)CC2)CC1,inconclusive: 16%
19,Nc1cc(-c2cccc3cnccc23)nc(N2CCCC2)n1,inconclusive: 13%
20,COc1ccccc1N=c1oc2ccccc2cc1C(=O)Nc1ccccc1F,inconclusive: 20%

row,Structure (SMILES),inhibition
1,Fc1ccc2c(c1)Sc1ccccc1N2,active: 36%
2,O=C1c2ccccc2C(=O)N1c1ccc(Cl)cn1,inconclusive: 19%
3,C=CCOc1ccc(-c2nn(-c3ccccc3)cc2/C=c2\sc3ncnn3c2=O)cc1C,inconclusive: 16%
4,CCOC(=CNc1ccc2nsnc2c1)OCC,inconclusive: 22% and inconclusive: 20%
5,CC(C)c1ccc(NC2CCCN(C(=O)CCN3CCCCO3)C2)cc1 (centres undefined),inactive
6,O=C(Cn1c(=O)sc2ccccc21)N1CCN(Cc2ccc3c(c2)OCO3)CC1,inactive
7,COCCO[C@H]1[C@H](NC(=O)C(C)C)c2ccccc2C12CCN(C(=O)CCc1cccs1)CC2,inconclusive: 17%
8,Cc1cccc(N2CCn3c2nc2c3c(=O)n(Cc3ccccc3)c(=O)n2C)c1,inconclusive: 29%
9,O=C(NCCCN1CCCCCC1)c1ccc2c(Cl)c3c(nc2c1)CCCC3,inconclusive: 17%
10,CCc1cc(-c2[nH]ncc2-c2ccc(F)cc2)c(O)cc1OC,inconclusive: 20%
11,Cc1cccc(-n2ncc3c(Nc4c(C)n(C)n(-c5ccccc5)c4=O)ncnc32)c1,inconclusive: 17%
12,COc1cc(-c2c(C#N)c(N)nc3sc(C(N)=O)c(N)c23)cc(OC)c1OC,inconclusive: 16%
13,CCn1c(C2CCCN(Cc3ccc(OC)c(C)c3C)C2)nn(C)c1=O (centres undefined),inactive
14,Cn1c(C2c3[nH]c4ccccc4c3CCN2Cc2ccco2)nc2ccccc21 (centres undefined),inconclusive: 17%
15,CN1CCC(N(C)C(=O)CCC2CCCN(Cc3cnn(-c4ccc(F)cc4)c3)C2)CC1 (centres undefined),inactive
16,N=C1S/C(=C\c2cccc(F)c2)C(=O)N1c1ccc2c(c1)OCO2,inconclusive: 16%
17,CCC(CC)CC(=O)N1CCC1c1ccc(F)cc1 (centres undefined),inconclusive: 11%
18,COc1ccc2nc3sc(C(=O)N(C)C4CCCCC4)cc3cc2c1,inconclusive: 19%
19,COc1cccc2c1OCCCN(C(=O)c1cccc(Cn3cccn3)c1)C2,inconclusive: 10%
